Data from article PMC6326811.
No constants are given. Whether binding was seen depends on the method and setting. In cells and extracts the contact can be indirect. Some entries that bind do so weakly or less than the wild type.

Chains of the proteins cited; added tags and fusions are not shown.
UniProt Q9BUR4: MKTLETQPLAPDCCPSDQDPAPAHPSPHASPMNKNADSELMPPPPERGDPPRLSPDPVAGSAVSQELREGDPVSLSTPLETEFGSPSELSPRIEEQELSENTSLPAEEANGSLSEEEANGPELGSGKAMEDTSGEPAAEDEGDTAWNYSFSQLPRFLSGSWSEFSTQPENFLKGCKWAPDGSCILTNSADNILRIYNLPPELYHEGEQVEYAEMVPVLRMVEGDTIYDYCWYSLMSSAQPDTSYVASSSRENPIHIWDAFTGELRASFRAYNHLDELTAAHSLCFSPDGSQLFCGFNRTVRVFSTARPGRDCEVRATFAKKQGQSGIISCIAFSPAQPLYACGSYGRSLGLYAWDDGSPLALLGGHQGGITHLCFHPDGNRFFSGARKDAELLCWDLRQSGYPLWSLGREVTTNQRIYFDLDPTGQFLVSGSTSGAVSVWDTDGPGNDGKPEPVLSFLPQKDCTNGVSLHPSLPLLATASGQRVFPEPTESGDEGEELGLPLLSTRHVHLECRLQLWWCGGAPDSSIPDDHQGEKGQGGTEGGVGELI
UniProt O14746: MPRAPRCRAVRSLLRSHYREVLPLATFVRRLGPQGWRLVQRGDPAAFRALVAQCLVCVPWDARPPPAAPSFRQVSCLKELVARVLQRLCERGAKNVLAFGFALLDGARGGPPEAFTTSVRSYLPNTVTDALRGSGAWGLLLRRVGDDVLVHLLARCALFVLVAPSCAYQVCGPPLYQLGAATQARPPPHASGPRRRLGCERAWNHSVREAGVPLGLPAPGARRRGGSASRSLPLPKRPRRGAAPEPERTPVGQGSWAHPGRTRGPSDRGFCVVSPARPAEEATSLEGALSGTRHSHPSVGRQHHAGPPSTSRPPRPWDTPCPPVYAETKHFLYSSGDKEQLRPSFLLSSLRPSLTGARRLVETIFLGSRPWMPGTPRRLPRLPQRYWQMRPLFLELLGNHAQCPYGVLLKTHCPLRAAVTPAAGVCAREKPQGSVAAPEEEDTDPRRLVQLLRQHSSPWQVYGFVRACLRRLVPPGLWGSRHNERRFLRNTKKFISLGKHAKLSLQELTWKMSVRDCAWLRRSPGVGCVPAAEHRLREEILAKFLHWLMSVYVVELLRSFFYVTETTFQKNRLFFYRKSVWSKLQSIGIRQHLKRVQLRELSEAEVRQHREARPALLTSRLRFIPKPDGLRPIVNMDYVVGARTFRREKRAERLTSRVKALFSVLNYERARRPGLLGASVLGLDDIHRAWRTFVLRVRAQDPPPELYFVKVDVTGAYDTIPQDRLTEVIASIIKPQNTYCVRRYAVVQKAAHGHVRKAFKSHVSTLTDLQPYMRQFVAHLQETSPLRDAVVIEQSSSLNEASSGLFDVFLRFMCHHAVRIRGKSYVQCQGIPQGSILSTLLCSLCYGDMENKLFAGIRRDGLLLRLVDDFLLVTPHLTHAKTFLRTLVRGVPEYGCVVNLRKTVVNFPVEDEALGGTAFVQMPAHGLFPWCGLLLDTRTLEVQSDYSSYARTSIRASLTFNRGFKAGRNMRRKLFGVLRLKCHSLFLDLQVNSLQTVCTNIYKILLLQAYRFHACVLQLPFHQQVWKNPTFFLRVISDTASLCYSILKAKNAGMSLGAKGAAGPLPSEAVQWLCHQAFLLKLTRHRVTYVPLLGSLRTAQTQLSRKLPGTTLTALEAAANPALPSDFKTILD

Columns and labels:
Assay in all cases: co-IP; GST-TOE1 transiently co-expressed in 293T cells with FLAG-HA-tagged proteins; IP with anti-FLAG agarose beads; blots with anti-FLAG and anti-GST
[1] = target: FLAG-HA-tagged TCAB1 (human) (UniProt Q9BUR4)
[2] = target: FLAG-HA-tagged TERT (human) (UniProt O14746)
[3] = target: FLAG-HA-tagged full-length wild-type TOE1 (human) (UniProt Q96GM8)

Measured: binding

GST-tagged TOE1 (from UniProt Q96GM8 1-510)
binds: [1] | [2] | [3]
